{
  "source": "patent EP4239334A1",
  "binders": {"B1": {"name": "IκBα wild type (SEQ ID NO: 4), P25963 1-317 (protein, not shown: small tags and cut ends)", "chain": "MFQAAERPQEWAMEGPRDGLKKERLLDDRHDSGLDSMKDEEYEQMVKELQEIRLEPQEVPRGSEPWKQQLTEDGDSFLHLAIIHEEKALTMEVIRQVKGDLAFLNFQNNLQQTPLHLAVITNQPEIAEALLGAGCDPELRDFRGNTPLHLACEQGCLASVGVLTQSCTTPHLHSILKATNYNGHTCLHLASIHGYLGIVELLVSLGADVNAQEPCNGRTALHLAVDLQNPDLVSLLLKCGADVNRVTYQGYSPYQLTWGRPSTRIQQQLGQLTLENLQMLPESEDEESYDTESEFTEFTEDELPYDDCVFGGQRLTL"}},
  "target": "NF-κB p65 subunit (endogenous, HEK-293T cells), Q04206",
  "assay": "Co-IP from transfected HEK-293T cells, endogenous NF-κB subunits",
  "conditions": "remark: other sources report otherwise",
  "note": "Results are given in words; binding and its absence hold for the method and conditions named. Binding seen in cells or lysates may run through a third protein. Some results given as binding are weak or reduced against the parent protein; the word gives no strength.",
  "data": [
    {"binder": "B1", "values": [
      {"measurement": "binding", "result": "binds"}
    ]}
  ]
}
